{"source": "PubChem BioAssay AID1159508 (Drosophila RNAi Screening Center, 2015)", "test": "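Viability reference data for a dsRNA library against RNA-binding protein genes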", "system": "Drosophila S2R+ cells", "knock-down reagent": "long dsRNA against Drosophila genes", "timing": "5 days", "measurement": "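Luminescent ATP signal as a proxy for cell fitness after 5 days of RNAi, given as a z-score in each replicate and averaged over replicates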", "direction": "mean ATP z-score: higher = more total ATP luminescence", "hit rule": "In these data the active calls have mean ATP z-score at about -2 or lower, or at about 2 or higher", "calls": "active = strong ATP change (up or down); inactive = no strong ATP change", "note": "This is an unselected part of 812 reagents. 18 of all reagents (2.2%) count as active. 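Calls include both increased and decreased ATP; roughly one in four reagents has no third replicate value.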 Not all columns of the deposit are shown. The record does not give: the amount of reagent."}
{"Gene":"TyrRS-m","DRSC id":"DRSC04286","mean ATP z-score":0.318,"activity call":"inactive"}
{"Gene":"TyrRS-m","DRSC id":"DRSC42682","mean ATP z-score":0.128,"activity call":"inactive"}
{"Gene":"bel","DRSC id":"DRSC31929","mean ATP z-score":-1.33,"activity call":"inactive"}
{"Gene":"bel","DRSC id":"DRSC31930","mean ATP z-score":-0.536,"activity call":"inactive"}
{"Gene":"bcd","DRSC id":"DRSC25303","mean ATP z-score":1.29,"activity call":"inactive"}
{"Gene":"bcd","DRSC id":"DRSC40455","mean ATP z-score":0.766,"activity call":"inactive"}
{"Gene":"Prp18","DRSC id":"DRSC16802","mean ATP z-score":-0.0969,"activity call":"inactive"}
{"Gene":"Prp18","DRSC id":"DRSC31807","mean ATP z-score":-0.186,"activity call":"inactive"}
{"Gene":"CG14100","DRSC id":"DRSC10101","mean ATP z-score":-0.1,"activity call":"inactive"}
{"Gene":"CG14100","DRSC id":"DRSC42689","mean ATP z-score":-0.237,"activity call":"inactive"}
{"Gene":"bin3","DRSC id":"DRSC04919","mean ATP z-score":-0.354,"activity call":"inactive"}
{"Gene":"bin3","DRSC id":"DRSC34493","mean ATP z-score":0.391,"activity call":"inactive"}
{"Gene":"heph","DRSC id":"DRSC16783","mean ATP z-score":-0.665,"activity call":"inactive"}
{"Gene":"heph","DRSC id":"DRSC39131","mean ATP z-score":-0.544,"activity call":"inactive"}

Ordered by “mean ATP z-score” (highest first): some entries from above.
{"Gene":"bcd","DRSC id":"DRSC40455","mean ATP z-score":0.766,"activity call":"inactive"}
{"Gene":"Prp18","DRSC id":"DRSC16802","mean ATP z-score":-0.0969,"activity call":"inactive"}

Next reagents:
{"Gene":"dsx","DRSC id":"DRSC26707","mean ATP z-score":0.0135,"activity call":"inactive"}
{"Gene":"dsx","DRSC id":"DRSC40763","mean ATP z-score":-0.716,"activity call":"inactive"}
{"Gene":"U2A","DRSC id":"DRSC28070","mean ATP z-score":-1.05,"activity call":"inactive"}
{"Gene":"U2A","DRSC id":"DRSC31826","mean ATP z-score":0.763,"activity call":"inactive"}
{"Gene":"CG4887","DRSC id":"DRSC25723","mean ATP z-score":-0.301,"activity call":"inactive"}
{"Gene":"CG4887","DRSC id":"DRSC41062","mean ATP z-score":-0.833,"activity call":"inactive"}
{"Gene":"Larp4B","DRSC id":"DRSC29411","mean ATP z-score":1.16,"activity call":"inactive"}
{"Gene":"Larp4B","DRSC id":"DRSC32812","mean ATP z-score":-0.165,"activity call":"inactive"}
{"Gene":"Zn72D","DRSC id":"DRSC11318","mean ATP z-score":-0.265,"activity call":"inactive"}
{"Gene":"Zn72D","DRSC id":"DRSC39229","mean ATP z-score":-0.566,"activity call":"inactive"}
{"Gene":"lark","DRSC id":"DRSC25108","mean ATP z-score":-0.964,"activity call":"inactive"}
{"Gene":"lark","DRSC id":"DRSC32144","mean ATP z-score":-0.217,"activity call":"inactive"}
{"Gene":"Cpsf100","DRSC id":"DRSC14146","mean ATP z-score":1.71,"activity call":"inactive"}
{"Gene":"Cpsf100","DRSC id":"DRSC34503","mean ATP z-score":1.6,"activity call":"inactive"}
{"Gene":"CG42458","DRSC id":"DRSC26691","mean ATP z-score":-1.59,"activity call":"inactive"}
{"Gene":"CG42458","DRSC id":"DRSC29831","mean ATP z-score":-0.544,"activity call":"inactive"}
{"Gene":"Rrp40","DRSC id":"DRSC00074","mean ATP z-score":0.63,"activity call":"inactive"}
{"Gene":"Rrp40","DRSC id":"DRSC42054","mean ATP z-score":0.581,"activity call":"inactive"}
